Some of these results come from one statement about several compounds together.
Test system: MV-4-11 subcutaneous xenograft tumor
Test: Anti-tumor efficacy in vivo, MV-4-11 subcutaneous xenograft model
Set-up: species or system BALB/c nude mice
Conditions: from the 4th day to the 15th day of administration; ABBV-075 3 mg/kg, 4009 10 mg/kg

Compound	tumor volume TGI (%)
CCS(=O)(=O)Cc1ccc2c(c1)-c1cn(C)c(=O)cc1CN=C2c1ccc(F)cc1 [Compound 4009, 7-(4-fluorophenyl)-2-methyl-10-(ethylsulfonemethyl)-2H-benzo[c]pyrido[3,4-e]azepin-3(5H)-ketone]	greater than 58%
CCS(=O)(=O)Nc1ccc(Oc2ccc(F)cc2F)c(-c2cn(C)c(=O)c3[nH]ccc23)c1 [ABBV-075]	greater than 58%

From patent publication US20190284192A1, “NITROGENOUS MACROCYCLIC COMPOUND, PREPARATION METHOD THEREFOR, PHARMACEUTICAL COMPOSITION AND APPLICATION THEREOF” (LUOXIN PHARMACEUTICAL (SHANGHAI) CO., LTD., priority 2016, published 2019)
